Laboratory results: patent US4085114A, “1,2-Benzoisoxazole derivatives and the production thereof” (Shionogi & Co., Ltd., priority 1975, dated 1978)
In brackets after ≈: the same amount, converted by molar mass.

Columns and labels:
isolated trachea = test: β-Blocking activities in the isolated trachea (inhibition of isoproterenol-induced relaxation of tracheal chain); assay type: cell-based, Guinea-pigs; settings: Cavia porcellus, read-out: fifty percent inhibitory concentration on the relaxation of tracheal chain by isoproterenol (IC50), 2. Trachea
Protocol: (§1) Guinea-pigs of either sex, weighing between 400 - 700 g each, were killed by a sharp blow on the head. Their atria and trachea were quickly excised and freed of excess tissues.
2. β-Blocking activities in the isolated trachea:
The isolated tracheal tube was cut into round slices consisting of two or three cartilage rings. After 8 such rings were linked, side by side, with an instant adhesive (Aron Alpha, Toa Gosei Kagaku), they were mounted in a 30 ml organ bath filled with Krebs-Ringer-bicarbonate solution, which was constantly bubbled with a gas mixture of 95% oxygen and 5% carbon dioxide at 37° C.
The isotonic relaxation of the tracheal chain by the administration of isoproterenol was recorded on the kymographic paper. […]. The benzisoxazole derivatives and propranolol were preincubated with the tracheal chain for 1 hour before the administration of isoproterenol. The fifty percent inhibitory concentration of the benzisoxazole derivatives and propranolol on the relaxation of tracheal chain by isoproterenol (IC50) were graphically determined.

isolated atria = test: β-Blocking activities in the isolated atria (inhibition of positive inotropic effect of isoproterenol); assay type: cell-based, Guinea-pigs; settings: Cavia porcellus, read-out: fifty percent inhibitory concentration on the positive inotropic effect of isoproterenol (IC50), 1. Atria
Protocol: as §1
1. β-Blocking activities in the isolated atria:
The isolated atria were mounted in a 30 ml organ bath filled with Krebs-Ringer-bicarbonate solution, which was constantly bubbled with a gas mixture of 95% oxygen and 5% carbon dioxide at 30° C. Spontaneous contractions of the atria were isometrically recorded on the polygraph (RM-150, Nihon Kohden Kogyo) by mean of a F-D pick-up (N. K. K.) and the number of contractions in one minute was recorded on the home-made pulse counter triggered by the atrial contractions.
[…]. The benzisoxazole derivatives and propranolol were preincubated with the atria for 10 minutes before the administration of isoproterenol. The fifty percent inhibitory concentration of the benzisoxazole derivatives and propranolol on the positive inotropic effect of isoproterenol (IC50) were graphically determined.

- IC50 (isolated trachea): 2.8 ng/mL (≈ 0.0108 µM)
- IC50 (isolated atria): 0.012 µg/mL (≈ 0.0463 µM)
Structure (SMILES): CC(C)NCC(O)COc1cccc2ccccc12 (centres unmarked) [Propranolol, reference compound]
